Experimental data: the supplement of paper PMC10849652
This is one part of the list.

The chains behind the UniProt entries cited, without tags or fusion partners. Where a name states a change or a piece, a line headed by the entry shows the natural chain unless it says otherwise.
UniProt Q9NR30: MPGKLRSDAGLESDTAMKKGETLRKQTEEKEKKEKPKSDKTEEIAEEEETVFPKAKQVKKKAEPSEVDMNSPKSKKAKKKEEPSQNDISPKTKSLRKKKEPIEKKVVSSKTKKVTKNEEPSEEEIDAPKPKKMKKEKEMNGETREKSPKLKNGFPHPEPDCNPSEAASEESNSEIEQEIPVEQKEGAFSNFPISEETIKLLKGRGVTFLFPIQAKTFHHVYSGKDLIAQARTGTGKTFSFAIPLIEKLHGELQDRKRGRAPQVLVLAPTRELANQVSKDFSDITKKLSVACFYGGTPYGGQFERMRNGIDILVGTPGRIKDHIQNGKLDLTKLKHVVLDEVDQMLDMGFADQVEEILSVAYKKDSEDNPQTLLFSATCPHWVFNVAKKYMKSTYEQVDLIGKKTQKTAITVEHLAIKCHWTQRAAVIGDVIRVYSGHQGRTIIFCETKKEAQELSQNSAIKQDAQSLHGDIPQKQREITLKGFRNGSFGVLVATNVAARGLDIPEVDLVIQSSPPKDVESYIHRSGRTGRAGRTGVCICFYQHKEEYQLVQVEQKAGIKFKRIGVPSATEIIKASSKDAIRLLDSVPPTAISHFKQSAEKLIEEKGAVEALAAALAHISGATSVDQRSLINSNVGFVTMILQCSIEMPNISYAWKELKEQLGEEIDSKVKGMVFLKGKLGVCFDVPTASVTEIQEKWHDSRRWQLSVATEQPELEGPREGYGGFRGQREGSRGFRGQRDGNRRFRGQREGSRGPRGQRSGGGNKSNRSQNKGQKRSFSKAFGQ
UniProt Q12959, whole entry, looked up: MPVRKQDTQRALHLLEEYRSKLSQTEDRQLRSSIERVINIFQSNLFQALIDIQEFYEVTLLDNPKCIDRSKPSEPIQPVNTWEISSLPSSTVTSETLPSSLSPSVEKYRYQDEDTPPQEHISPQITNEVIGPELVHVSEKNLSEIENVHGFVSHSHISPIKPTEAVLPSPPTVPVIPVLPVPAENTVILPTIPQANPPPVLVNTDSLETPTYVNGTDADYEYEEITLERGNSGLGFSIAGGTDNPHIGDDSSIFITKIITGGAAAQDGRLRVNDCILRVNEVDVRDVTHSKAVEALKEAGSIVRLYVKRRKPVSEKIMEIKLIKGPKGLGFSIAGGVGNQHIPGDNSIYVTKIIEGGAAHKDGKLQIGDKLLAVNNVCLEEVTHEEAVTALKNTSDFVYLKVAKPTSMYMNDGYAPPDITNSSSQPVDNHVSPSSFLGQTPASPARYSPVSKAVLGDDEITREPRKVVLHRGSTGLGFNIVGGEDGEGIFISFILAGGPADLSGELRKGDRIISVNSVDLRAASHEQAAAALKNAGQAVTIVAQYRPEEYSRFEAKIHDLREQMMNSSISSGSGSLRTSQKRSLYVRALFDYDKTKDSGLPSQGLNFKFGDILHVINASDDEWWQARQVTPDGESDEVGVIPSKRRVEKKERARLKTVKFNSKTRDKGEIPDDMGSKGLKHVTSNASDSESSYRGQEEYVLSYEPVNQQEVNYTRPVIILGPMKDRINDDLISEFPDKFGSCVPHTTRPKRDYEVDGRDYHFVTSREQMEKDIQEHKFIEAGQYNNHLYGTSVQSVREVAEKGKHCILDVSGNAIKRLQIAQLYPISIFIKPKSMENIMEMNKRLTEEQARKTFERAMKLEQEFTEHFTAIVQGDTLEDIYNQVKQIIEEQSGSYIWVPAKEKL
UniProt O00273: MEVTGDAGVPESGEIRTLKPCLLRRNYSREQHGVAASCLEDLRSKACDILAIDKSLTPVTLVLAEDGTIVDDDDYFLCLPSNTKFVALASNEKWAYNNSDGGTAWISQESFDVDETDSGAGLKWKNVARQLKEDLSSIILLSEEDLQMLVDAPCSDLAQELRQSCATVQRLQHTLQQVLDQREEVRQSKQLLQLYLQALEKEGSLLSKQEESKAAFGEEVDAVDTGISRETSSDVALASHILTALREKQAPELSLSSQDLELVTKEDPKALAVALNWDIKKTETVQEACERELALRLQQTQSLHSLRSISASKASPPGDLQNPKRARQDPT
UniProt Q16854: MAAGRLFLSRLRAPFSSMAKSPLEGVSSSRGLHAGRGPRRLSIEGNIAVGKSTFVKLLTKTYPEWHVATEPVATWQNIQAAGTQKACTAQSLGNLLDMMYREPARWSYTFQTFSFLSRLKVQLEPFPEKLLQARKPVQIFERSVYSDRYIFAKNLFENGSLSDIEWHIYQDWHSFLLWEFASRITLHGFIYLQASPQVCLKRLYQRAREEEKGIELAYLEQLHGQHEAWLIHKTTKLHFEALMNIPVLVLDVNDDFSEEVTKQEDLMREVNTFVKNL
UniProt Q7Z401: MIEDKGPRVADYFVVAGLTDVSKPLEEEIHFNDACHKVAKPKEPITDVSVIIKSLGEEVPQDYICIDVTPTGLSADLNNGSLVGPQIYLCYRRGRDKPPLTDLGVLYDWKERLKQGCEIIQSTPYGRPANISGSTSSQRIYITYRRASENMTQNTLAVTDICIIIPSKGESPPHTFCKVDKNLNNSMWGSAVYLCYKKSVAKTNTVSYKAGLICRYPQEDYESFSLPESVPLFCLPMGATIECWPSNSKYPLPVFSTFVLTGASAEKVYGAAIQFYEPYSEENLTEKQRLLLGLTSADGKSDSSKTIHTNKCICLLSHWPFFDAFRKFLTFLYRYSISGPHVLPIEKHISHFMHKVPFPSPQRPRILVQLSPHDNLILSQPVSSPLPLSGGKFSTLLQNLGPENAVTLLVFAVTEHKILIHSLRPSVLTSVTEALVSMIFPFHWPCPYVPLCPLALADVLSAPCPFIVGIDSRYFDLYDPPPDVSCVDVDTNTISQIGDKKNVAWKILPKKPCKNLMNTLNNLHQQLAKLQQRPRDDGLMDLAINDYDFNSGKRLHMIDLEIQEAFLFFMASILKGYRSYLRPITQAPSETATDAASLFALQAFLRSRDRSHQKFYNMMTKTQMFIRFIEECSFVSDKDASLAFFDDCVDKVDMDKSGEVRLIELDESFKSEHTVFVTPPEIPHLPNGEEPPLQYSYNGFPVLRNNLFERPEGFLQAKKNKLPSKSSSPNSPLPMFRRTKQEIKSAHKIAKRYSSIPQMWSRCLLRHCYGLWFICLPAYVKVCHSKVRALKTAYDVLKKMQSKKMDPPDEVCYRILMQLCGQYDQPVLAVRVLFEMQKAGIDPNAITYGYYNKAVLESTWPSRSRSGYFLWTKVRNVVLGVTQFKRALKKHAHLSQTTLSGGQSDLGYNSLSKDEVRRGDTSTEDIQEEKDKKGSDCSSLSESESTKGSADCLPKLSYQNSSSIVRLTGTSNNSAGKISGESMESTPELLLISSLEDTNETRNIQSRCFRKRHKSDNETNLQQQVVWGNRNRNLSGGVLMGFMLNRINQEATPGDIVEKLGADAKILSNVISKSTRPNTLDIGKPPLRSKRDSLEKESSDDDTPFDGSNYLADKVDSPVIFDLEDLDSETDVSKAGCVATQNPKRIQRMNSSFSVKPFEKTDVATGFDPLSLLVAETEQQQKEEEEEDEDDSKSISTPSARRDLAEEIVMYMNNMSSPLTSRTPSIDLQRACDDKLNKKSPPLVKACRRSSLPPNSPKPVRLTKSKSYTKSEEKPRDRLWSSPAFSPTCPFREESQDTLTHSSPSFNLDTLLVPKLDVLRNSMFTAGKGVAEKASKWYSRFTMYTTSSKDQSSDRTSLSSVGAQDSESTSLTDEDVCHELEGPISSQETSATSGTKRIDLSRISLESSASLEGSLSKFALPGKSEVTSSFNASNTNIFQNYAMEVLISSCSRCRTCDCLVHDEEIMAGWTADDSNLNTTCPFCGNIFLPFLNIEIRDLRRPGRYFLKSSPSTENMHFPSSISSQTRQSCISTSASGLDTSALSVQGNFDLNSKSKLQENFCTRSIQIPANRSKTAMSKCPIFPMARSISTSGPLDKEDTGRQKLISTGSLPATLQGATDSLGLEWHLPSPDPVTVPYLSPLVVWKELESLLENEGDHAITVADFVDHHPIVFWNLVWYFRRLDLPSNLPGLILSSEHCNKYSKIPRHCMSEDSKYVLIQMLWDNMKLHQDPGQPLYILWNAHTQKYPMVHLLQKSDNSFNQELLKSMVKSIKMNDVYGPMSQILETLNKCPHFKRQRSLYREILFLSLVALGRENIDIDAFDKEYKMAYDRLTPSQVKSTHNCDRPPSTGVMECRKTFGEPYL
UniProt Q9NW81: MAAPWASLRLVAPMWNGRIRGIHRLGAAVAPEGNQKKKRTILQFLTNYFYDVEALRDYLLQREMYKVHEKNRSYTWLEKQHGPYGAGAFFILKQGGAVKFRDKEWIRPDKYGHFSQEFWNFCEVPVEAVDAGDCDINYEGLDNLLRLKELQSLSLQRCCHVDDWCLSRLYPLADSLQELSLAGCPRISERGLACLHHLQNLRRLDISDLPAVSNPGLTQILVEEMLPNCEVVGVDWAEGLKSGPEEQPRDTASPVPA
UniProt O95865: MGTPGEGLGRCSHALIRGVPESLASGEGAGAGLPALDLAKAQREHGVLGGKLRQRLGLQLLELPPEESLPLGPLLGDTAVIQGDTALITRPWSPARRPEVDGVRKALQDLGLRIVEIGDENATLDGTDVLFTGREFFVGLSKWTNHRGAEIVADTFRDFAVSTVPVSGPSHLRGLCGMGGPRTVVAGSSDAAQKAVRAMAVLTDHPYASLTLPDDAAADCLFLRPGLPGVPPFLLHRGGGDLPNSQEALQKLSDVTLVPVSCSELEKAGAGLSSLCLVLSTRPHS
UniProt Q7Z478: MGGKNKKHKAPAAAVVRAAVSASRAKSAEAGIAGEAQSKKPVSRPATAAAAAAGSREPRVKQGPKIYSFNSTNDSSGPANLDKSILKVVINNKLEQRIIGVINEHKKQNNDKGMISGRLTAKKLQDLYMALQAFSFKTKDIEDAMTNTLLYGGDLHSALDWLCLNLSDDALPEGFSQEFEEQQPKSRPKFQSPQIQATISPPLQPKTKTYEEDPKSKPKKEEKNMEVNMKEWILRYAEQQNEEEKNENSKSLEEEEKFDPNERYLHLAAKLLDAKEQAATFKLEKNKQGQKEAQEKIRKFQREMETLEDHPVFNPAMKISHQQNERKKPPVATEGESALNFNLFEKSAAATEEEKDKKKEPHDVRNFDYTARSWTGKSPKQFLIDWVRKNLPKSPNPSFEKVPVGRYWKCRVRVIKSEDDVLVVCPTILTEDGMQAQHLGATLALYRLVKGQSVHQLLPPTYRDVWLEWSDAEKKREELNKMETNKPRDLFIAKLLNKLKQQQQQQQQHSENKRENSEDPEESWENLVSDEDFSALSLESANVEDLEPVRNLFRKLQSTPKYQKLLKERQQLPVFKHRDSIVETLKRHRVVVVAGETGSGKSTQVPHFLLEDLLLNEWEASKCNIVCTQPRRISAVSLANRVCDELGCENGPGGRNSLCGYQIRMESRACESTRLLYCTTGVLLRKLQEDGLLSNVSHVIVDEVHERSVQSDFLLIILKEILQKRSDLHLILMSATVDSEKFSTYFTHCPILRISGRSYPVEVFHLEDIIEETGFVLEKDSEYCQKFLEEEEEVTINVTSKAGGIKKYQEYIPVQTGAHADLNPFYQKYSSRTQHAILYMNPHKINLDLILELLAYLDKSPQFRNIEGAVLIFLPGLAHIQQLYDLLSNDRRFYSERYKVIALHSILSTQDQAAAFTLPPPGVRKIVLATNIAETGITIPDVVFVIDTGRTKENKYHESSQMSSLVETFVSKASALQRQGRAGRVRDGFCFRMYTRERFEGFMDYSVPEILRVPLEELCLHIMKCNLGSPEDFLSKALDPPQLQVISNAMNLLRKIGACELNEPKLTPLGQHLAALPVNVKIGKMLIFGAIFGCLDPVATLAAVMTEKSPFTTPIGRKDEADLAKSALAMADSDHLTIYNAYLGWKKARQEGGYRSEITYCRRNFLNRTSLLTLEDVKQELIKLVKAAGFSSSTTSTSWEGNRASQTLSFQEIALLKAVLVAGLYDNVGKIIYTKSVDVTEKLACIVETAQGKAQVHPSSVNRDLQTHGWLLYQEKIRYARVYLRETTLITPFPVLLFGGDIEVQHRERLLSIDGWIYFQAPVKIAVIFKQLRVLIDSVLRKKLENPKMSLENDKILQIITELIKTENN
UniProt Q9Y6V7: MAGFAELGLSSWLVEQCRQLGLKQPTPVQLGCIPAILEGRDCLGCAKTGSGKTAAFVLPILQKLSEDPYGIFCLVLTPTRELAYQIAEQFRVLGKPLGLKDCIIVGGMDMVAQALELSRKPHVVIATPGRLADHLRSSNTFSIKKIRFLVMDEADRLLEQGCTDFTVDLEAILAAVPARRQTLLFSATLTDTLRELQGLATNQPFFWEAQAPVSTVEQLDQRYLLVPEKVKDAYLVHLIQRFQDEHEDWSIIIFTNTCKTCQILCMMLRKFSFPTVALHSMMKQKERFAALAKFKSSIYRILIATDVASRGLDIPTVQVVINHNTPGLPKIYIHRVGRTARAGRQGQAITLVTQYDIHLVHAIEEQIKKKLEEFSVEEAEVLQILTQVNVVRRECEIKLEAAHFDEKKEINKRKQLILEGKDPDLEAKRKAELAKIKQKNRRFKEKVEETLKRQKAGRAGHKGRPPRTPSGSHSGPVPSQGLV

Assays:
Test in all cases: log2 fold change, soluble protein after heating vs DMSO (PISA); higher = thermal stabilisation; K562 cells, 10 uM, 30 min; active = over 0.2 and 3.5 SD of the protein, either way, in both replicates (recomputed)
[1] = compound: CS(=O)(=O)c1ccc(-c2cnc(N)c(C(=O)Nc3ccccc3)n2)cc1
Procedure, shortened: (§1)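 Quantification of soluble protein used TMTpro 16plex LC-MS/MS, with channel sums equalised. Samples were the supernatant after 21,000xg for 90 min of pooled aliquots from K562 cells (2×10^6 cells/mL) treated with 10 μM compound for 30 min, heated for 3 min over 48°C-58°C, and extracted in PBS with 0.5% NP-40 at 4°C. Values, from duplicates, describe thermal stability against control samples on a log2 fold-change scale.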

crizotinib = compound: C[C@@H](Oc1cc(-c2cnn(C3CCNCC3)c2)cnc1N)c1c(Cl)ccc(F)c1Cl [crizotinib]
Procedure, shortened: as §1

[2] = compound: C[C@@H]1COCCN1C2=NC(=NC(=C2)C3(CC3)S(=O)(=O)C)C4=C5C=CNC5=CC=C4
Procedure, shortened: as §1

[3] = compound: C[C@H](C1=CC=C(C=C1)C(=O)NC2=C3C=CNC3=NC=C2)N
Procedure, shortened: as §1

duvelisib = compound: C[C@H](Nc1ncnc2nc[nH]c12)c1cc2cccc(Cl)c2c(=O)n1-c1ccccc1 [duvelisib]
Procedure, shortened: as §1

gandotinib = compound: Cc1cc(Nc2cc(CN3CCOCC3)c3nc(C)c(Cc4ccc(Cl)cc4F)n3n2)n[nH]1 [gandotinib]
Procedure, shortened: as §1

tozasertib = compound: Cc1cc(Nc2cc(N3CCN(C)CC3)nc(Sc3ccc(NC(=O)C4CC4)cc3)n2)n[nH]1 [tozasertib]
Procedure, shortened: as §1

[4] = compound: Cc1cc(SCc2sc(-c3ccc(C(F)(F)F)cc3)nc2C)ccc1OCC(=O)O
Procedure, shortened: as §1

doramapimod = compound: Cc1ccc(-n2nc(C(C)(C)C)cc2NC(=O)Nc2ccc(OCCN3CCOCC3)c3ccccc23)cc1 [doramapimod]
Procedure, shortened: as §1

ispinesib = compound: Cc1ccc(C(=O)N(CCCN)[C@@H](c2nc3cc(Cl)ccc3c(=O)n2Cc2ccccc2)C(C)C)cc1 [ispinesib]
Procedure, shortened: as §1

bafetinib = compound: Cc1ccc(NC(=O)c2ccc(CN3CC[C@H](N(C)C)C3)c(C(F)(F)F)c2)cc1Nc1nccc(-c2cncnc2)n1 [bafetinib]
Procedure, shortened: as §1

[5] = compound: Cc1cccc(CC(=O)N2CCc3c2ccc(-c2cn(C)c4ncnc(N)c24)c3F)n1
Procedure, shortened: as §1

nilotinib = compound: Cc1cn(-c2cc(NC(=O)c3ccc(C)c(Nc4nccc(-c5cccnc5)n4)c3)cc(C(F)(F)F)c2)cn1 [nilotinib]
Procedure, shortened: as §1

[6] = compound: Cc1nc(Nc2n[nH]c3c2CN(C(=O)N[C@H](CN(C)C)c2ccccc2)C3(C)C)c2sccc2n1
Procedure, shortened: as §1

dasatinib = compound: Cc1nc(Nc2ncc(C(=O)Nc3c(C)cccc3Cl)s2)cc(N2CCN(CCO)CC2)n1 [dasatinib]
Procedure, shortened: as §1

[7] = compound: Cc1ncc(-c2ccnc(Nc3ccc(S(C)(=O)=O)cc3)n2)n1C(C)C
Procedure, shortened: as §1

[8] = compound: Cn1cc(-c2ccc3c(c2)CCN3C(=O)Cc2cccc(C(F)(F)F)c2)c2c(N)ncnc21
Procedure, shortened: as §1

[9] = compound: Cn1cc(-c2ccc3nnc(C(F)(F)c4ccc5ncccc5c4)n3n2)cn1
Procedure, shortened: as §1

tipifarnib = compound: Cn1cncc1[C@@](N)(c1ccc(Cl)cc1)c1ccc2c(c1)c(-c1cccc(Cl)c1)cc(=O)n2C [tipifarnib]
Procedure, shortened: as §1

mubritinib = compound: FC(F)(F)c1ccc(/C=C/c2nc(COc3ccc(CCCCn4ccnn4)cc3)co2)cc1 [mubritinib]
Procedure, shortened: as §1

Measured: log2 fold change

DKC1 (UniProt O60832)
inactive: [1] -0.066 | crizotinib 0.007 | [2] -0.077 | [3] 0.158 | duvelisib -0.035 | gandotinib 0.102 | tozasertib -0.048 | [4] -0.012 | doramapimod 0.08 | ispinesib -0.008 | bafetinib 0.065 | [5] -0.048 | nilotinib -0.024 | [6] 0.108 | dasatinib 0.143 | [7] 0.032 | [8] -0.117 | [9] -0.117 | tipifarnib 0.072 | mubritinib -0.043

DES (UniProt P17661)
inactive: [1] 0.203 | crizotinib 0.229 | [2] -0.179 | [3] 0.06 | duvelisib 0.073 | gandotinib 0.226 | tozasertib -0.109 | [4] -0.054 | doramapimod 0.138 | ispinesib -0.065 | bafetinib -0.132 | [5] -0.078 | nilotinib 0.124 | [6] -0.014 | dasatinib 0.171 | [7] -0.032 | [8] 0.1 | [9] 0.016 | tipifarnib -0.07 | mubritinib 0.025

DIP2B (UniProt Q9P265)
inactive: [1] -0.008 | crizotinib 0.036 | [2] -0.013 | [3] -0.069 | duvelisib 0.032 | gandotinib -0.022 | tozasertib 0.015 | [4] 0.012 | doramapimod -0.02 | ispinesib 0.061 | bafetinib -0.03 | [5] 0.031 | nilotinib -0.001 | [6] -0.008 | dasatinib -0.035 | [7] -0.015 | [8] 0.053 | [9] 0.015 | tipifarnib -0.006 | mubritinib 0.043

2 consecutive records out of the list so far:
DKC1 (UniProt O60832)
inactive: [1] -0.066 | crizotinib 0.007 | [2] -0.077 | [3] 0.158 | duvelisib -0.035 | gandotinib 0.102 | tozasertib -0.048 | [4] -0.012 | doramapimod 0.08 | ispinesib -0.008 | bafetinib 0.065 | [5] -0.048 | nilotinib -0.024 | [6] 0.108 | dasatinib 0.143 | [7] 0.032 | [8] -0.117 | [9] -0.117 | tipifarnib 0.072 | mubritinib -0.043

DES (UniProt P17661)
inactive: [1] 0.203 | crizotinib 0.229 | [2] -0.179 | [3] 0.06 | duvelisib 0.073 | gandotinib 0.226 | tozasertib -0.109 | [4] -0.054 | doramapimod 0.138 | ispinesib -0.065 | bafetinib -0.132 | [5] -0.078 | nilotinib 0.124 | [6] -0.014 | dasatinib 0.171 | [7] -0.032 | [8] 0.1 | [9] 0.016 | tipifarnib -0.07 | mubritinib 0.025

Later entries

DDX21 (UniProt Q9NR30)
inactive: [1] -0.025 | crizotinib -0.114 | [2] -0.043 | [3] 0.381 | duvelisib -0.087 | gandotinib 0.001 | tozasertib -0.05 | [4] -0.01 | doramapimod 0.152 | ispinesib -0.181 | bafetinib 0.042 | [5] -0.03 | nilotinib 0.04 | [6] -0.013 | dasatinib 0.139 | [7] 0.096 | [8] -0.233 | [9] -0.074 | tipifarnib 0.174 | mubritinib -0.071

DLG1 isoform 2 (UniProt Q12959)
inactive: [1] 0.041 | crizotinib -0.044 | [2] 0.026 | [3] -0.062 | duvelisib -0.044 | gandotinib -0.054 | tozasertib -0.06 | [4] 0.02 | doramapimod 0.004 | ispinesib 0.111 | bafetinib -0.019 | [5] 0.01 | nilotinib 0.015 | [6] -0.075 | dasatinib 0.021 | [7] -0.061 | [8] 0.038 | [9] 0.109 | tipifarnib 0.016 | mubritinib 0.05

DFFA (UniProt O00273)
inactive: [1] 0.012 | crizotinib 0.022 | [2] 0.09 | [3] -0.069 | duvelisib 0.003 | gandotinib -0.024 | tozasertib -0.015 | [4] -0.01 | doramapimod 0.003 | ispinesib 0.052 | bafetinib -0.021 | [5] 0.006 | nilotinib -0.008 | [6] 0.037 | dasatinib 0.033 | [7] 0.003 | [8] 0.026 | [9] -0.012 | tipifarnib -0.01 | mubritinib -0.024

DGUOK (UniProt Q16854)
inactive: [1] 0.019 | crizotinib 0.039 | [2] -0.084 | [3] -0.031 | duvelisib 0.028 | gandotinib -0.054 | tozasertib -0.018 | [4] 0.032 | doramapimod -0.049 | ispinesib 0.02 | bafetinib -0.099 | [5] -0.104 | nilotinib 0.011 | [6] 0.004 | dasatinib 0.045 | [7] -0.032 | [8] -0.007 | [9] 0.038 | tipifarnib 0.051 | mubritinib 0.018

DDX23 (UniProt Q9BUQ8)
inactive: [1] -0.023 | crizotinib 0.082 | [2] -0.162 | [3] 0.212 | duvelisib 0.037 | gandotinib 0.159 | tozasertib 0.118 | [4] -0.025 | doramapimod 0.182 | ispinesib 0.079 | bafetinib 0.341 | [5] -0.081 | nilotinib 0.301 | [6] -0.016 | dasatinib 0.283 | [7] 0.073 | [8] -0.306 | [9] -0.104 | tipifarnib -0.016 | mubritinib 0.101

DENND4A isoform 2 (UniProt Q7Z401)
inactive: [1] -0.096 | crizotinib 0.029 | [2] -0.082 | [3] 0.043 | duvelisib 0.12 | gandotinib -0.094 | tozasertib 0.023 | [4] 0.08 | doramapimod -0.116 | ispinesib -0.136 | bafetinib -0.05 | [5] 0.024 | nilotinib -0.075 | [6] -0.223 | dasatinib -0.256 | [7] -0.051 | [8] -0.107 | [9] -0.071 | tipifarnib -0.07 | mubritinib -0.236

DMAC2 isoform 4 (UniProt Q9NW81)
inactive: [1] 0.08 | crizotinib 0.01 | [2] -0.046 | [3] 0 | duvelisib 0.024 | gandotinib -0.128 | tozasertib 0.086 | [4] 0.035 | doramapimod -0.043 | ispinesib -0.144 | bafetinib -0.027 | [5] 0.02 | nilotinib -0.029 | [6] 0.056 | dasatinib -0.079 | [7] -0.006 | [8] 0.058 | [9] 0.112 | tipifarnib -0.111 | mubritinib 0.002

DHRS4 (UniProt Q9BTZ2)
inactive: [1] -0.004 | crizotinib 0.045 | [2] 0.031 | [3] -0.097 | duvelisib -0.025 | gandotinib -0.077 | tozasertib -0.005 | [4] -0.016 | doramapimod -0.017 | ispinesib 0.116 | bafetinib -0.042 | [5] 0.002 | nilotinib -0.023 | [6] -0.027 | dasatinib 0.014 | [7] -0.002 | [8] 0.011 | [9] -0.008 | tipifarnib -0.031 | mubritinib -0.005

DDAH2 (UniProt O95865)
inactive: [1] 0.015 | crizotinib 0.077 | [2] 0.141 | [3] -0.086 | duvelisib 0.07 | gandotinib 0.039 | tozasertib 0.03 | [4] -0.001 | doramapimod 0.013 | ispinesib 0.066 | bafetinib -0.017 | [5] -0.039 | nilotinib 0.03 | [6] -0.019 | dasatinib 0.11 | [7] 0.002 | [8] 0.109 | [9] 0.074 | tipifarnib -0.034 | mubritinib 0.032

DHX29 (UniProt Q7Z478)
inactive: [1] -0.076 | crizotinib -0.029 | [2] -0.284 | [3] 0.145 | duvelisib -0.053 | gandotinib -0.062 | tozasertib -0.023 | [4] 0.03 | doramapimod 0.084 | ispinesib -0.133 | bafetinib 0.092 | [5] 0.059 | nilotinib 0.02 | [6] -0.013 | dasatinib 0.003 | [7] 0.08 | [8] -0.092 | [9] -0.154 | tipifarnib 0.037 | mubritinib -0.007

DHDDS isoform 2 (UniProt Q86SQ9)
inactive: [1] 0 | crizotinib 0.115 | [2] 0.018 | [3] 0.027 | duvelisib 0.061 | gandotinib 0.046 | tozasertib 0.018 | [4] -0.05 | doramapimod 0.046 | ispinesib 0.112 | bafetinib -0.013 | [5] -0.04 | nilotinib 0.029 | [6] 0.045 | dasatinib -0.022 | [7] -0.022 | [8] -0.006 | [9] 0.021 | tipifarnib -0.023 | mubritinib 0.072

DDX49 (UniProt Q9Y6V7)
inactive: [1] 0.033 | crizotinib -0.059 | [2] -0.134 | [3] 0.157 | duvelisib -0.092 | gandotinib 0.055 | tozasertib -0.122 | [4] 0.002 | doramapimod 0.086 | ispinesib 0.017 | bafetinib 0.267 | [5] -0.038 | nilotinib 0.135 | [6] 0.106 | dasatinib 0.063 | [7] 0.008 | [8] -0.054 | [9] -0.08 | tipifarnib 0.035 | mubritinib 0.091
